Test results as given in US12439922B2, “Plant-based chemicals for Varroa mite control” (priority 2019, dated 2025).
Some results were stated once for a whole list of compounds, not compound by compound. At least one compound was matched to its structure with a doubt left.

These compounds were tested on Varroa mites (Varroa destructor) (assay: LD50 determination for mites (topical application, mortality at 24 h)). Conditions: highest dose (3200 ng/mite).
Assay type: in vivo
Method: Varroa mites (Varroa destructor) were collected from colonies at the Michigan State University apiary in East Lansing, MI. Mites were collected using the “sugar shake” method (Macedo and Ellis 2002). Approximately 350 bees were brushed from brood frames into a plastic basin and then poured into 473 ml wide-mouth Mason jars fitted with screen lids (3 mm×3 mm mesh). Approximately 8 g powdered sugar were sifted through the screen and the jar was shaken for 20 seconds and let to sit for 3 minutes. The mites then fell through the screen onto a piece of paper. Mites were collected, and the sugar dusts were washed off using moistened paintbrushes. Mites were kept in Petri-dishes with worker pupae and transported to the campus lab for LD50 determination.
Chemicals were dissolved in acetone serially diluted to obtain appropriate dosages. Each mite was topically applied with 0.2 μl of acetone containing the tested chemicals. A triplicate of 10 mites per dose were then housed in a Petri dish (diameter 3 cm, 34.5° C., RH 75%) with one white-eyed worker pupa as food. Mortality was assessed at 24 h. Mites were considered dead if no movement is observed in response to prodding with a metal probe.
For both bee and mite mortality data, control mortality was used to correct the mortality of different doses of drugs (Abbott, 1925). A Log-Probit line was fitted for each treatment from which the LD50 values and 95% confidence intervals were calculated using the R statistical package (R Development Core Team 2008).

Row | Compound | mite population killed at the highest doses [%]
1 | CC(C)(C)[C@]1(O)CC2OC(=O)CC23C(=O)OC2OC(=O)[C@H](O)C231 (stereo partly drawn) [Bilobalide] | < 50
2 | C[C@@H]1C(=O)O[C@H]2[C@H](O)[C@@]34[C@H]5C[C@@H](C(C)(C)C)[C@]36[C@@H](OC(=O)[C@@H]6O)O[C@@]4(C(=O)O5)[C@@]12O [Ginkolide B] | < 50
3 | Ginkolide C | < 50
